According to article PMC12264150, “A chromatin-remodeling-independent role for ATRX in protecting centromeric cohesion” (The EMBO Journal, 2025):
These are yes or no findings as the source states them, for the method shown. Binding seen in cells or lysates may run through a third protein. A yes stands for co-enrichment or nearness to the bait. Other partners may have been found. Sequences can lack the tags named with a protein. Blank lines part the entries; values can stand above or below the molecule they belong to.

Chains of the proteins cited; added tags and fusions are not shown.
UniProt Q96FF9: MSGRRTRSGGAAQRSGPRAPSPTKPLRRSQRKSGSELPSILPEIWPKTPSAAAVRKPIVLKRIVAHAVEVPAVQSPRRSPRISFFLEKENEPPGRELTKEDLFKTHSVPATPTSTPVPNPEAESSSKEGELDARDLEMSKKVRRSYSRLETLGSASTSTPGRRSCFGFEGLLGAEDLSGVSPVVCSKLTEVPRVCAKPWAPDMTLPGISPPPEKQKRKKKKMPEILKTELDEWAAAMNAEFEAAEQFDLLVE
UniProt O60216: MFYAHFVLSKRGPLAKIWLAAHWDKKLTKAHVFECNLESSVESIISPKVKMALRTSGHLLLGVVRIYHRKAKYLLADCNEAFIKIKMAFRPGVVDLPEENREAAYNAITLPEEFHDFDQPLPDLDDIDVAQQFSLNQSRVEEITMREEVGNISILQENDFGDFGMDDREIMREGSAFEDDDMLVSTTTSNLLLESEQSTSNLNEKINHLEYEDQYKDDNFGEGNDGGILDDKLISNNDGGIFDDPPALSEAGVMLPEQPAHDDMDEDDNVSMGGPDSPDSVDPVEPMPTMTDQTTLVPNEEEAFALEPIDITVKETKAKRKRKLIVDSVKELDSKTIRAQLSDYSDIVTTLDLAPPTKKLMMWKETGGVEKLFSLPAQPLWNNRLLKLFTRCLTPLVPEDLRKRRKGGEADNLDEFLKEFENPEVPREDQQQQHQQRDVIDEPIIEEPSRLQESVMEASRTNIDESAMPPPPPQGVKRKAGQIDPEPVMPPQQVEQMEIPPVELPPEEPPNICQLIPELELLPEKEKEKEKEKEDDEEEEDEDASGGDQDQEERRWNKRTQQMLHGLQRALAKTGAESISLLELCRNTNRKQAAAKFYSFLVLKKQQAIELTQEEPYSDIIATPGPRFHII
UniProt Q8N3U4: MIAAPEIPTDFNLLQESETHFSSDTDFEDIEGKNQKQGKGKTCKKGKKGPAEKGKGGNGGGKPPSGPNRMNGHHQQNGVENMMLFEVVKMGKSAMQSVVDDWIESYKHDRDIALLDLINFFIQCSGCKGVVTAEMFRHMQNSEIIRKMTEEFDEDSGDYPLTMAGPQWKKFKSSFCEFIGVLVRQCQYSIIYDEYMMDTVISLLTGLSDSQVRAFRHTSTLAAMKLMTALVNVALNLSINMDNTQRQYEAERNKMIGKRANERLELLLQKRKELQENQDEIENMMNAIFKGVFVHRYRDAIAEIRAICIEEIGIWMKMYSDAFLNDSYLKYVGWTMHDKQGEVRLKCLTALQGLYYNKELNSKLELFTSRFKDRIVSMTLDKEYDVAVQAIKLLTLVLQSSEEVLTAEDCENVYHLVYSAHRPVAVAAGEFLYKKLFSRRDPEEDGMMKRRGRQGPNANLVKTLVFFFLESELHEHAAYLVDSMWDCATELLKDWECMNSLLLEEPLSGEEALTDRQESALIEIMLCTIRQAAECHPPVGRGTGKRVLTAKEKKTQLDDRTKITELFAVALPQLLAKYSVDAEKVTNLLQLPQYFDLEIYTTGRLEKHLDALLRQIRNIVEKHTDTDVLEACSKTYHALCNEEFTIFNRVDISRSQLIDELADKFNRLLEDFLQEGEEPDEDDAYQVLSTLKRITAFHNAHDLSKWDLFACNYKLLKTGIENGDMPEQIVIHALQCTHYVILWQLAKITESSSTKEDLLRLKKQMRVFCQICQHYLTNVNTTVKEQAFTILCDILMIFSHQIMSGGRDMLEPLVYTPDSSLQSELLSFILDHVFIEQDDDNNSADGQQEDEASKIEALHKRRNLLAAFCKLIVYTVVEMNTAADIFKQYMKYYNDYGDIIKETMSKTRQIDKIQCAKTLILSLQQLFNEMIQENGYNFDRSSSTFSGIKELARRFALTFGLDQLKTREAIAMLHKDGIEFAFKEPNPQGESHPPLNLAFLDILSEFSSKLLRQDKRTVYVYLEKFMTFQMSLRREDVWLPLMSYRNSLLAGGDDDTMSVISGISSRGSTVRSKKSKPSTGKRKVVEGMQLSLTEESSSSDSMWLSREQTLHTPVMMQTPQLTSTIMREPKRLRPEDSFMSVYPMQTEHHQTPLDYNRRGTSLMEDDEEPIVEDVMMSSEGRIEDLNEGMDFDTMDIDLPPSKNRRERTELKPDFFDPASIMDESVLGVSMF
UniProt Q9UQE7: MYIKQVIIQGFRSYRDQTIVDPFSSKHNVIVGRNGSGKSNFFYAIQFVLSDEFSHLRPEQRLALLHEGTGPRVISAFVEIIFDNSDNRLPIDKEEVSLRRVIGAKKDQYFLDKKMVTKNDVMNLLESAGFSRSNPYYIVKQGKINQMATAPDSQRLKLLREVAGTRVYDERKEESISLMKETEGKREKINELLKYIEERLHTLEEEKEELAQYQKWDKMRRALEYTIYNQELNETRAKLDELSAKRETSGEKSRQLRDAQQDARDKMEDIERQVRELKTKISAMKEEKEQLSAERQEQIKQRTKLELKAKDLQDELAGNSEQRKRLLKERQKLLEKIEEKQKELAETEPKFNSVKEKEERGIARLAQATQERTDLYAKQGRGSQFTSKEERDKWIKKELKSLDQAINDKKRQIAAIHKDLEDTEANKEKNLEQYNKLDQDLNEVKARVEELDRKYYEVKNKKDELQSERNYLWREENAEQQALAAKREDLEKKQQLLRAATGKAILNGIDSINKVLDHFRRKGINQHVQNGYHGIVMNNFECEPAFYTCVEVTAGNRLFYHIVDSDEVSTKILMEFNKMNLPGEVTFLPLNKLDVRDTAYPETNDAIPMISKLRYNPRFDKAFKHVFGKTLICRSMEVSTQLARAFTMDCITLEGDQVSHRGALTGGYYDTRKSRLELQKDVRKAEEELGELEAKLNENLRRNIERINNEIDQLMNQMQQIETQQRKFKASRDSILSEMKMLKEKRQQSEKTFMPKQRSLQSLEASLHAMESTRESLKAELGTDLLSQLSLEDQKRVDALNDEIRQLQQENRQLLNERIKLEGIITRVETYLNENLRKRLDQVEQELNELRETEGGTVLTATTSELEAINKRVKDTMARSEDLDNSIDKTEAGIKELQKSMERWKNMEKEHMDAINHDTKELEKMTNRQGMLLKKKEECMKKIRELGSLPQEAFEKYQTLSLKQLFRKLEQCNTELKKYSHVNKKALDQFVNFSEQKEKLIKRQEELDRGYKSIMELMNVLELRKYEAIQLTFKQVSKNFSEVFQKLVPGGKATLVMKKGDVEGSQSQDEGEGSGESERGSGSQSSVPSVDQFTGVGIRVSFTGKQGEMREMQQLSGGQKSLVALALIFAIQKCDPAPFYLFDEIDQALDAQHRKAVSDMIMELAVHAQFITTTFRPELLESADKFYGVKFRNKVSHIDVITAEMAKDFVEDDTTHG

Target: T1, Myc-Pds5B (UniProt Q9NTI5)
T1 sequence: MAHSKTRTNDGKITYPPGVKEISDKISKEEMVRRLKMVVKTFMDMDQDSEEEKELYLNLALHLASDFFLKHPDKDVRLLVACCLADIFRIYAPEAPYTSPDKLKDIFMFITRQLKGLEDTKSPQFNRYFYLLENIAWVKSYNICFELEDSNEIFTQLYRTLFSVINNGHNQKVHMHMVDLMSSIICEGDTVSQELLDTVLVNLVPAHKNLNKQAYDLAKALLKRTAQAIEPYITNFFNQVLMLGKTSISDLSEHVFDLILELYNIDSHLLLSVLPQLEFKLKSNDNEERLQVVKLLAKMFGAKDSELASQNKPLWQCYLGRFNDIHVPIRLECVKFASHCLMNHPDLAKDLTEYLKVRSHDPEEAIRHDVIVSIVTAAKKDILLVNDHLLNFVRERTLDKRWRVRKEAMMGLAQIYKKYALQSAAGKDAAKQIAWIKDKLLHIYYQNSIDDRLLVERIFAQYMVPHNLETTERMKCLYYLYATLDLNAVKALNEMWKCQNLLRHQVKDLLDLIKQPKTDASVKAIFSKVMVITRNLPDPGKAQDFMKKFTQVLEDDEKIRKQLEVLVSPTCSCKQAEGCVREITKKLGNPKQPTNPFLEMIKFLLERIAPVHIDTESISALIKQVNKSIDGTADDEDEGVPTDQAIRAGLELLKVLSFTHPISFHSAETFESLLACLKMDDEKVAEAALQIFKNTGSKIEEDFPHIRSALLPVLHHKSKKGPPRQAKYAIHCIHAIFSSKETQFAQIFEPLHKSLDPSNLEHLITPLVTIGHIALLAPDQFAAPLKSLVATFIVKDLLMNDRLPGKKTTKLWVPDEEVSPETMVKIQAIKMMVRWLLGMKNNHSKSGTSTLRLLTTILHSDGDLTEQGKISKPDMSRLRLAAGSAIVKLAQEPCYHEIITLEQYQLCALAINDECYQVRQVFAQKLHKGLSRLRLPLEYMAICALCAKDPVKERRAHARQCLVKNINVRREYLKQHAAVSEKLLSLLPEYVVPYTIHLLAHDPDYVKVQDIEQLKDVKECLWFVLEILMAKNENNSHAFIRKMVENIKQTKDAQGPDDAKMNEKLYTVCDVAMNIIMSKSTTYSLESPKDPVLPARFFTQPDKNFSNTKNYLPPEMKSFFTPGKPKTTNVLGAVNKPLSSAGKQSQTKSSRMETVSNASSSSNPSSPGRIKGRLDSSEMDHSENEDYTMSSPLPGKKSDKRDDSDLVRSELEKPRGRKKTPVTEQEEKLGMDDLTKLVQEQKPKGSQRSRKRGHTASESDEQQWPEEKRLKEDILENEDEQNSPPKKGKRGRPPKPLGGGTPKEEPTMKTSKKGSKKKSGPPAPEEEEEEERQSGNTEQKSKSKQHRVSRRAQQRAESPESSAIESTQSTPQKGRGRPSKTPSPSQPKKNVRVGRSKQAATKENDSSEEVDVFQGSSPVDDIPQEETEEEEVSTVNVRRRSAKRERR
Assay: affinity purification with mass spectrometry; Myc-Pds5B immunoprecipitated from HEK-293T cells with anti-Myc beads, control IgG beside it; bands cut from SDS-PAGE, trypsin, Orbitrap Exploris 480

Molecule: endogenous Sororin (HEK-293T) (from UniProt Q96FF9 1-252)
binding: binds

Molecule: endogenous RAD21 (HEK-293T) (from UniProt O60216 1-631)
binding: binds

B1: endogenous Wapl (HEK-293T) (protein, UniProt Q7Z5K2 1-1190)
chain: MTSRFGKTYSRKGGNGSSKFDEVFSNKRTTLSTKWGETTFMAKLGQKRPNFKPDIQEIPKKPKVEEESTGDPFGFDSDDESLPVSSKNLAQVKCSSYSESSEAAQLEEVTSVLEANSKISHVVVEDTVVSDKCFPLEDTLLGKEKSTNRIVEDDASISSCNKLITSDKVENFHEEHEKNSHHIHKNADDSTKKPNAETTVASEIKETNDTWNSQFGKRPESPSEISPIKGSVRTGLFEWDNDFEDIRSEDCILSLDSDPLLEMKDDDFKNRLENLNEAIEEDIVQSVLRPTNCRTYCRANKTKSSQGASNFDKLMDGTSQALAKANSESSKDGLNQAKKGGVSCGTSFRGTVGRTRDYTVLHPSCLSVCNVTIQDTMERSMDEFTASTPADLGEAGRLRKKADIATSKTTTRFRPSNTKSKKDVKLEFFGFEDHETGGDEGGSGSSNYKIKYFGFDDLSESEDDEDDDCQVERKTSKKRTKTAPSPSLQPPPESNDNSQDSQSGTNNAENLDFTEDLPGVPESVKKPINKQGDKSKENTRKIFSGPKRSPTKAVYNARHWNHPDSEELPGPPVVKPQSVTVRLSSKEPNQKDDGVFKAPAPPSKVIKTVTIPTQPYQDIVTALKCRREDKELYTVVQHVKHFNDVVEFGENQEFTDDIEYLLSGLKSTQPLNTRCLSVISLATKCAMPSFRMHLRAHGMVAMVFKTLDDSQHHQNLSLCTAALMYILSRDRLNMDLDRASLDLMIRLLELEQDASSAKLLNEKDMNKIKEKIRRLCETVHNKHLDLENITTGHLAMETLLSLTSKRAGDWFKEELRLLGGLDHIVDKVKECVDHLSRDEDEEKLVASLWGAERCLRVLESVTVHNPENQSYLIAYKDSQLIVSSAKALQHCEELIQQYNRAEDSICLADSKPLPHQNVTNHVGKAVEDCMRAIIGVLLNLTNDNEWGSTKTGEQDGLIGTALNCVLQVPKYLPQEQRFDIRVLGLGLLINLVEYSARNRHCLVNMETSCSFDSSICSGEGDDSLRIGGQVHAVQALVQLFLERERAAQLAESKTDELIKDAPTTQHDKSGEWQETSGEIQWVSTEKTDGTEEKHKKEEEDEELDLNKALQHAGKHMEDCIVASYTALLLGCLCQESPINVTTVREYLPEGDFSIMTEMLKKFLSFMNLTCAVGTTGQKSISRVIEYLEHC
binding: binds

B3: endogenous SMC1A (HEK-293T) (protein, UniProt Q14683 1-1233)
chain: MGFLKLIEIENFKSYKGRQIIGPFQRFTAIIGPNGSGKSNLMDAISFVLGEKTSNLRVKTLRDLIHGAPVGKPAANRAFVSMVYSEEGAEDRTFARVIVGGSSEYKINNKVVQLHEYSEELEKLGILIKARNFLVFQGAVESIAMKNPKERTALFEEISRSGELAQEYDKRKKEMVKAEEDTQFNYHRKKNIAAERKEAKQEKEEADRYQRLKDEVVRAQVQLQLFKLYHNEVEIEKLNKELASKNKEIEKDKKRMDKVEDELKEKKKELGKMMREQQQIEKEIKEKDSELNQKRPQYIKAKENTSHKIKKLEAAKKSLQNAQKHYKKRKGDMDELEKEMLSVEKARQEFEERMEEESQSQGRDLTLEENQVKKYHRLKEEASKRAATLAQELEKFNRDQKADQDRLDLEERKKVETEAKIKQKLREIEENQKRIEKLEEYITTSKQSLEEQKKLEGELTEEVEMAKRRIDEINKELNQVMEQLGDARIDRQESSRQQRKAEIMESIKRLYPGSVYGRLIDLCQPTQKKYQIAVTKVLGKNMDAIIVDSEKTGRDCIQYIKEQRGEPETFLPLDYLEVKPTDEKLRELKGAKLVIDVIRYEPPHIKKALQYACGNALVCDNVEDARRIAFGGHQRHKTVALDGTLFQKSGVISGGASDLKAKARRWDEKAVDKLKEKKERLTEELKEQMKAKRKEAELRQVQSQAHGLQMRLKYSQSDLEQTKTRHLALNLQEKSKLESELANFGPRINDIKRIIQSREREMKDLKEKMNQVEDEVFEEFCREIGVRNIREFEEEKVKRQNEIAKKRLEFENQKTRLGIQLDFEKNQLKEDQDKVHMWEQTVKKDENEIEKLKKEEQRHMKIIDETMAQLQDLKNQHLAKKSEVNDKNHEMEEIRKKLGGANKEMTHLQKEVTAIETKLEQKRSDRHNLLQACKMQDIKLPLSKGTMDDISQEEGSSQGEDSVSGSQRISSIYAREALIEIDYGDLCEDLKDAQAEEEIKQEMNTLQQKLNEQQSVLQRIAAPNMKAMEKLESVRDKFQETSDEFEAARKRAKKAKQAFEQIKKERFDRFNACFESVATNIDEIYKALSRNSSAQAFLGPENPEEPYLDGINYNCVAPGKRFRPMDNLSGGEKTVAALALLFAIHSYKPAPFFVLDEIDAALDNTNIGKVANYIKEQSTCNFQAIVISLKEEFYTKAESLIGVYPEQGDCVISKVLTFDLTKYPDANPNPNEQ
binding: binds

Second part, the molecule after the results:

binding: binds
Molecule: endogenous SA2 (HEK-293T) (from UniProt Q8N3U4 1-1231)

binding: binds
Molecule: endogenous SMC3 (HEK-293T) (from UniProt Q9UQE7 1-1217)

binding: binds
B2: endogenous SA1 (HEK-293T) (protein, UniProt Q8WVM7 1-1258)
chain: MITSELPVLQDSTNETTAHSDAGSELEETEVKGKRKRGRPGRPPSTNKKPRKSPGEKSRIEAGIRGAGRGRANGHPQQNGEGEPVTLFEVVKLGKSAMQSVVDDWIESYKQDRDIALLDLINFFIQCSGCRGTVRIEMFRNMQNAEIIRKMTEEFDEDSGDYPLTMPGPQWKKFRSNFCEFIGVLIRQCQYSIIYDEYMMDTVISLLTGLSDSQVRAFRHTSTLAAMKLMTALVNVALNLSIHQDNTQRQYEAERNKMIGKRANERLELLLQKRKELQENQDEIENMMNSIFKGIFVHRYRDAIAEIRAICIEEIGVWMKMYSDAFLNDSYLKYVGWTLHDRQGEVRLKCLKALQSLYTNRELFPKLELFTNRFKDRIVSMTLDKEYDVAVEAIRLVTLILHGSEEALSNEDCENVYHLVYSAHRPVAVAAGEFLHKKLFSRHDPQAEEALAKRRGRNSPNGNLIRMLVLFFLESELHEHAAYLVDSLWESSQELLKDWECMTELLLEEPVQGEEAMSDRQESALIELMVCTIRQAAEAHPPVGRGTGKRVLTAKERKTQIDDRNKLTEHFIITLPMLLSKYSADAEKVANLLQIPQYFDLEIYSTGRMEKHLDALLKQIKFVVEKHVESDVLEACSKTYSILCSEEYTIQNRVDIARSQLIDEFVDRFNHSVEDLLQEGEEADDDDIYNVLSTLKRLTSFHNAHDLTKWDLFGNCYRLLKTGIEHGAMPEQIVVQALQCSHYSILWQLVKITDGSPSKEDLLVLRKTVKSFLAVCQQCLSNVNTPVKEQAFMLLCDLLMIFSHQLMTGGREGLQPLVFNPDTGLQSELLSFVMDHVFIDQDEENQSMEGDEEDEANKIEALHKRRNLLAAFSKLIIYDIVDMHAAADIFKHYMKYYNDYGDIIKETLSKTRQIDKIQCAKTLILSLQQLFNELVQEQGPNLDRTSAHVSGIKELARRFALTFGLDQIKTREAVATLHKDGIEFAFKYQNQKGQEYPPPNLAFLEVLSEFSSKLLRQDKKTVHSYLEKFLTEQMMERREDVWLPLISYRNSLVTGGEDDRMSVNSGSSSSKTSSVRNKKGRPPLHKKRVEDESLDNTWLNRTDTMIQTPGPLPAPQLTSTVLRENSRPMGDQIQEPESEHGSEPDFLHNPQMQISWLGQPKLEDLNRKDRTGMNYMKVRTGVRHAVRGLMEEDAEPIFEDVMMSSRSQLEDMNEEFEDTMVIDLPPSRNRRERAELRPDFFDSAAIIEDDSGFGMPMF
